Results deposited as PubChem BioAssay AID1259405 (NCATS, 2018).
The deposit covers about 50,000 reagents; below is a part drawn at random. About 4,000 of them (8%) were called active. 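Mouse siRNA library applied to hamster cells; one well for each siRNA.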 The numbers tell different reagents against one gene apart.

Screen: 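Mouse-designed siRNAs used to find CHO productivity engineering targets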 (primary screen)
Cell system: Chinese hamster CHO-K1 ovary cells with stable secreted eGFP expression
Reagent: single siRNA against mouse genes, 0.8 pmol siRNA per well (2 µl of 400 nM stock)
Duration: 3 days
Measurement: 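Percent of the per-plate non-targeting control median for intracellular GFP per well by laser scanning cytometry and for cell viability by ATP luminescence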
Direction: GFP, % of control: higher = more GFP per well, higher productivity; viability (ATP), % of control: higher = more viable cells (more ATP)
Active means: 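Called active when intracellular GFP, relative to negative control, is at or above 120%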

GFP, % of control	viability (ATP), % of control	activity call	target gene	reagent
175	117	active	Asf1b (GeneID 66929)	1
89.6	74	inactive	Asf1b (GeneID 66929)	2
43.9	66.1	inactive	Asf1b (GeneID 66929)	3
88.1	106	inactive	Mthfd2 (GeneID 17768)	1
97	81.8	inactive	Mthfd2 (GeneID 17768)	2
49.2	76.6	inactive	Mthfd2 (GeneID 17768)	3
75.2	79.9	inactive	Atg13 (GeneID 51897)	1
55.7	92.1	inactive	Atg13 (GeneID 51897)	2
73.6	33.2	inactive	Atg13 (GeneID 51897)	3
56.7	32.4	inactive	Zw10 (GeneID 26951)	1
83.6	80.2	inactive	Zw10 (GeneID 26951)	2
74	96	inactive	Zw10 (GeneID 26951)	3
54	57.9	inactive	Arl4c (GeneID 320982)	1
77	82.4	inactive	Arl4c (GeneID 320982)	2
90.5	77.6	inactive	Arl4c (GeneID 320982)	3
98.4	86.9	inactive	Rnd1 (GeneID 223881)	1
208	126	active	Rnd1 (GeneID 223881)	2
82.1	76.1	inactive	Rnd1 (GeneID 223881)	3
75.8	69.9	inactive	Gpc3 (GeneID 14734)	1
119	52.4	inactive	Gpc3 (GeneID 14734)	2
118	68.3	inactive	Gpc3 (GeneID 14734)	3
68.5	66.9	inactive	Mmp27 (GeneID 234911)	1
46.5	57	inactive	Mmp27 (GeneID 234911)	2
92.7	88.5	inactive	Olfr908 (GeneID 258872)	1
84	61.2	inactive	Olfr908 (GeneID 258872)	2
89.1	74.9	inactive	Olfr908 (GeneID 258872)	3
101	85.6	inactive	Ugt1a2 (GeneID 22236)	1
77.5	98.9	inactive	Ugt1a2 (GeneID 22236)	2
65.2	56.8	inactive	Ugt1a2 (GeneID 22236)	3
122	134	active	Rab11b (GeneID 19326)	1
64.7	43.9	inactive	Rab11b (GeneID 19326)	2
97.9	56.5	inactive	Rab11b (GeneID 19326)	3
71.4	76.5	inactive	Fibp (GeneID 58249)	1
24.9	23.1	inactive	Fibp (GeneID 58249)	2
95.6	91.3	inactive	Fibp (GeneID 58249)	3

Taken from above.
Under “activity call”, Rnd1 (GeneID 223881) #2 reads active
For “GFP, % of control”, Asf1b (GeneID 66929) #3 reads 43.9
For “GFP, % of control”, Zw10 (GeneID 26951) #2 reads 83.6
Entry for Olfr908 (GeneID 258872) #3 in “viability (ATP), % of control”: 74.9
For “activity call”, Asf1b (GeneID 66929) #1 shows active
